Test results as given in publication PMC11044505.
Results are given in words; binding and its absence hold for the method and conditions named. Binding seen in cells or lysates may run through a third protein.

Biological target: Flag-tagged fruit fly Traf6 (Drosophila (fruit fly))
Experiment: co-IP; anti-Flag pulldown from lysates of tub-Gal4 > UAS:Flag-dTraf6 animals; eluted proteins analysed by SDS-PAGE and Western blotting

- binding: no binding
B1: endogenous Drosophila SMN (protein, UniProt Q9VV74 1-226)
chain: MSDETNAAVWDDSLLVKTYDESVGLAREALARRLADSTNKREEENAAAAEEEAGEISATGGATSPEPVSFKVGDYARATYVDGVDYEGAVVSINEEKGTCVLRYLGYENEQEVLLVDLLPSWGKRVRREQFLIAKKDEDEQLSRPKASAGSHSKTPKSSRRSRISGGLVMPPMPPVPPMIVGQGDGAEQDFVAMLTAWYMSGYYTGLYQGKKEASTTSGKKKTPKK
